US20100234349A1, “PHARMACEUTICAL COMBINATIONS OF A NICOTINE RECEPTOR MODULATOR AND A COGNITIVE ENHANCER” (priority 2006, published 2010)
Some entries share one result that the patent states for a list of compounds.

Test system: nicotine receptors
Assay: FLIPR: shift of the (−)nicotine dose-response curve by positive allosteric modulators
Format: cell-based
Conditions: in the presence of 1-10 μM of the positive allosteric modulator

`N#Cc1cccc(-c2nc(-c3cccnc3)no2)c1` [Compound 4.15, 3-(3-Pyridin-3-yl-[1,2,4]oxadiazol-5-yl)-benzonitrile] was tested, and the “left-shift of the (−)nicotine dose-response curve” value was 10-100 fold.
